# Measured values published in PubChem BioAssay AID328 (DTP/NCI, 2004).
# The list is a part of this screen's results and no random one: it covers a few groups of compounds. Other doses and runs of a compound may be missing. T/C is the treated group as % of the vehicle group. Some doses have a count of surviving animals in place of a T/C: the source files T/C as zero there, which appears to mark a toxic dose or a test without result, not a measured value. Some doses without a T/C left all or most animals alive at the check, yet need not have been tolerated: the source hardly ever lists a survival T/C far under the control, and the zero likely stands for such cases as well. Counts of survivors are from the toxicity check (mostly the fifth day) where no day follows; animals may have died later. Schedules are NCI's codes, taken here to give the interval after Q, in days (D) or hours (H), and the number of doses after X. Where survival is the endpoint, this PubChem deposit counts one and a half times the control or more as active, and values a quarter to a half above the control carry no call in these data; other NCI protocols may use other cut-offs. Some entries hold several experiments; their values stand side by side, smallest first. Some T/C values are marked as having no survivor count here; that says nothing about deaths at the dose. Some T/C values are followed by the survivors on the day toxicity was checked, most often the fifth; without a count or a note in brackets, all were alive then.
# System: BDF1 mice, P388 leukemia ip, median survival T/C
# Experiment: NCI In Vivo Anticancer Drug Screen. Data for tumor model P388 Leukemia (intraperitoneal) in B6D2F1 (BDF1) mice
# Details: T/C endpoint: median survival time, higher T/C = longer survival
# Outline: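 Mice carrying the transplantable tumour receive compound or vehicle. Survival is followed in each arm, and the treated measure is divided by the vehicle measure.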
# [1] = dose: 18.0 mg/kg/injection, schedule: Q01DX009 (ip), vehicle: saline
# [2] = dose: 400.0 mg/kg/injection, schedule: Q04DX003 (ip), vehicle: Klucel (hydroxypropylcellulose) (HPC)
# [3] = dose: 100.0 mg/kg/injection, schedule: Q04DX003 (ip), vehicle: Klucel (hydroxypropylcellulose) (HPC)
# [4] = dose: 75.0 mg/kg/injection, schedule: Q04DX003 (ip), vehicle: saline
# [5] = dose: 100.0 mg/kg/injection, schedule: Q01DX009 (ip), vehicle: saline
# [6] = dose: 100.0 mg/kg/injection, schedule: Q04DX003 (ip), vehicle: saline sonified
# [7] = dose: 200.0 mg/kg/injection, schedule: Q04DX003 (ip), vehicle: saline sonified
# [8] = dose: 400.0 mg/kg/injection, schedule: Q04DX003 (ip), vehicle: saline sonified
smiles,measurement,setting,value
COC1OC(CNCCBr)C2OC(C)(C)OC12 (stereo unspecified),T/C,"dose: 2.25 mg/kg/injection, schedule: Q01DX009 (ip), vehicle: saline",105 % of control [5 of 6 alive]
same,T/C,"dose: 4.5 mg/kg/injection, schedule: Q01DX009 (ip), vehicle: saline",122 % of control
same,T/C,"dose: 9.0 mg/kg/injection, schedule: Q01DX009 (ip), vehicle: saline",188 % of control
same,T/C,[1],205 % of control
same,T/C,"dose: 25.0 mg/kg/injection, schedule: Q01DX001 (ip), vehicle: saline",163 % of control
same,T/C,"dose: 36.0 mg/kg/injection, schedule: Q01DX009 (ip), vehicle: saline",250 % of control
same,T/C,"dose: 50.0 mg/kg/injection, schedule: Q01DX001 (ip), vehicle: saline",181 % of control
same,T/C,"dose: 100.0 mg/kg/injection, schedule: Q01DX001 (ip), vehicle: saline",190 % of control
same,T/C,"dose: 200.0 mg/kg/injection, schedule: Q01DX001 (ip), vehicle: saline",181 % of control
CN(Nc1c([N+](=O)[O-])cc([N+](=O)[O-])cc1[N+](=O)[O-])c1ccccc1,T/C,"dose: 12.5 mg/kg/injection, schedule: Q01DX009 (ip), vehicle: Klucel (hydroxypropylcellulose) (HPC)",100 % of control [survivor count not shown]
same,T/C,"dose: 12.5 mg/kg/injection, schedule: Q04DX003 (ip), vehicle: Klucel (hydroxypropylcellulose) (HPC)",100 % of control [survivor count not shown]
same,T/C,"dose: 25.0 mg/kg/injection, schedule: Q01DX009 (ip), vehicle: Klucel (hydroxypropylcellulose) (HPC)",91 % of control [survivor count not shown]
same,T/C,"dose: 25.0 mg/kg/injection, schedule: Q04DX003 (ip), vehicle: Klucel (hydroxypropylcellulose) (HPC)",91 % of control [survivor count not shown]
same,T/C,"dose: 50.0 mg/kg/injection, schedule: Q01DX009 (ip), vehicle: Klucel (hydroxypropylcellulose) (HPC)",95 % of control [survivor count not shown]
same,T/C,"dose: 50.0 mg/kg/injection, schedule: Q04DX003 (ip), vehicle: Klucel (hydroxypropylcellulose) (HPC)",100 % of control [survivor count not shown]
same,T/C,[2],100 % of control [survivor count not shown]
CN(C)Nc1c([N+](=O)[O-])cc([N+](=O)[O-])cc1[N+](=O)[O-],T/C,"dose: 100.0 mg/kg/injection, schedule: Q01DX009 (ip), vehicle: Klucel (hydroxypropylcellulose) (HPC)",86 % of control [survivor count not shown]
same,T/C,[3],95 % of control [survivor count not shown]
same,T/C,"dose: 200.0 mg/kg/injection, schedule: Q01DX009 (ip), vehicle: Klucel (hydroxypropylcellulose) (HPC)",86 % of control [survivor count not shown]
same,T/C,[2],91 % of control [survivor count not shown]
CCOC(=O)C(CC(C)C)NC(=O)N(CCCl)CCCl (stereo unspecified),T/C,"dose: 100.0 mg/kg/injection, schedule: Q04DX003 (ip), vehicle: saline with Tween-80",96 % of control
same,T/C,"dose: 200.0 mg/kg/injection, schedule: Q04DX003 (ip), vehicle: saline with Tween-80",96 % of control
same,T/C,"dose: 400.0 mg/kg/injection, schedule: Q04DX003 (ip), vehicle: saline with Tween-80",103 % of control
O=P(Nc1ncccn1)(N1CC1)N1CC1,T/C,"dose: 1.8 mg/kg/injection, schedule: Q04DX003 (ip), vehicle: saline",113 % of control
same,T/C,"dose: 2.6 mg/kg/injection, schedule: Q04DX003 (ip), vehicle: saline",109 % of control
same,T/C,"dose: 3.3 mg/kg/injection, schedule: Q01DX009 (ip), vehicle: saline",153 % of control
same,T/C,"dose: 4.0 mg/kg/injection, schedule: Q04DX003 (ip), vehicle: saline",104 % of control
same,T/C,"dose: 5.0 mg/kg/injection, schedule: Q01DX009 (ip), vehicle: saline",150 % of control
same,T/C,"dose: 6.0 mg/kg/injection, schedule: Q04DX003 (ip), vehicle: saline",131 % of control
same,T/C,"dose: 6.3 mg/kg/injection, schedule: Q04DX003 (ip), vehicle: saline",159 % of control
same,T/C,"dose: 8.0 mg/kg/injection, schedule: Q01DX009 (ip), vehicle: saline",171 and 186 % of control
same,T/C,"dose: 9.5 mg/kg/injection, schedule: Q04DX003 (ip), vehicle: saline",177 % of control
same,T/C,"dose: 12.0 mg/kg/injection, schedule: Q01DX009 (ip), vehicle: saline",222 % of control
same,T/C,"dose: 12.5 mg/kg/injection, schedule: Q01DX009 (ip), vehicle: saline",268 % of control
same,T/C,"dose: 14.5 mg/kg/injection, schedule: Q04DX003 (ip), vehicle: saline",190 % of control
same,T/C,[1],272 % of control
same,T/C,"dose: 22.0 mg/kg/injection, schedule: Q04DX003 (ip), vehicle: saline",196 and 204 % of control
same,T/C,"dose: 25.0 mg/kg/injection, schedule: Q01DX009 (ip), vehicle: saline",86 and 110 % of control
same,T/C,"dose: 25.0 mg/kg/injection, schedule: Q04DX003 (ip), vehicle: saline",166 % of control
same,T/C,"dose: 33.0 mg/kg/injection, schedule: Q04DX003 (ip), vehicle: saline",230 and 272 % of control
same,survivor count,"dose: 50.0 mg/kg/injection, schedule: Q01DX009 (ip), vehicle: saline",6 of 6
same,T/C,"dose: 50.0 mg/kg/injection, schedule: Q04DX003 (ip), vehicle: saline","118, 230, 238 % of control"
same,T/C,[4],100 % of control [5 of 6 alive]
same,survivor count,[4],6 of 6
same,survivor count,[5],6 of 6
same,T/C,"dose: 100.0 mg/kg/injection, schedule: Q04DX003 (ip), vehicle: saline",88 % of control [4 of 6 alive]
O=P(NCCCO)(OCCCl)N(CCCl)CCCl (stereo unspecified),T/C,[6],100 % of control [5 of 6 alive]
same,T/C,[7],100 % of control
same,T/C,"dose: 264.0 mg/kg/injection, schedule: Q04DX003 (ip), vehicle: saline",109 % of control
same,T/C,[8],118 % of control
same,T/C,"dose: 400.0 mg/kg/injection, schedule: Q04DX003 (ip), vehicle: saline",140 % of control
CC1(C)CN1P(=O)(Nc1ncccn1)N1CC1(C)C (stereo unspecified),T/C,"dose: 13.3 mg/kg/injection, schedule: Q01DX009 (ip), vehicle: saline",100 % of control
same,T/C,"dose: 20.0 mg/kg/injection, schedule: Q01DX009 (ip), vehicle: saline",113 % of control
same,T/C,"dose: 30.0 mg/kg/injection, schedule: Q01DX009 (ip), vehicle: saline",118 % of control [5 of 6 alive]
same,T/C,"dose: 44.0 mg/kg/injection, schedule: Q01DX009 (ip), vehicle: saline",136 % of control
same,T/C,"dose: 45.0 mg/kg/injection, schedule: Q01DX009 (ip), vehicle: saline",145 % of control
same,T/C,"dose: 66.0 mg/kg/injection, schedule: Q01DX009 (ip), vehicle: saline",154 % of control [5 of 6 alive]
same,T/C,[5],190 % of control
same,T/C,[6],172 % of control
same,T/C,"dose: 150.0 mg/kg/injection, schedule: Q01DX009 (ip), vehicle: saline",213 % of control
same,T/C,[7],136 % of control
same,T/C,[8],200 % of control
[N-]=[N+]=Nc1cc2c(cc1[N+](=O)[O-])no[n+]2[O-],T/C,"dose: 15.0 mg/kg/injection, schedule: Q01DX009 (ip), vehicle: saline with Tween-80",123 % of control [survivor count not shown]
same,T/C,"dose: 30.0 mg/kg/injection, schedule: Q01DX009 (ip), vehicle: saline with Tween-80",123 % of control [survivor count not shown]
O=[N+]([O-])c1cc([N+](=O)[O-])c2ccc3c([N+](=O)[O-])cc([N+](=O)[O-])c4ccc1c2c43,T/C,[3],105 % of control [5 of 6 alive]
same,T/C,"dose: 200.0 mg/kg/injection, schedule: Q04DX003 (ip), vehicle: Klucel (hydroxypropylcellulose) (HPC)",105 % of control
same,T/C,[2],111 % of control
ClCCN(CCCl)B1SCCCS1,T/C,"dose: 12.5 mg/kg/injection, schedule: Q01DX009 (ip), vehicle: saline with Tween-80",127 % of control
same,T/C,"dose: 25.0 mg/kg/injection, schedule: Q01DX009 (ip), vehicle: saline with Tween-80",200 % of control
same,T/C,"dose: 50.0 mg/kg/injection, schedule: Q01DX009 (ip), vehicle: saline with Tween-80",200 % of control
same,T/C,"dose: 50.0 mg/kg/injection, schedule: Q04DX003 (ip), vehicle: saline with Tween-80",209 % of control
